{
  "sequences": {"note": "By UniProt entry, the sequences of proteins in these tests, tags left out.", "UniProt P41595, whole entry": "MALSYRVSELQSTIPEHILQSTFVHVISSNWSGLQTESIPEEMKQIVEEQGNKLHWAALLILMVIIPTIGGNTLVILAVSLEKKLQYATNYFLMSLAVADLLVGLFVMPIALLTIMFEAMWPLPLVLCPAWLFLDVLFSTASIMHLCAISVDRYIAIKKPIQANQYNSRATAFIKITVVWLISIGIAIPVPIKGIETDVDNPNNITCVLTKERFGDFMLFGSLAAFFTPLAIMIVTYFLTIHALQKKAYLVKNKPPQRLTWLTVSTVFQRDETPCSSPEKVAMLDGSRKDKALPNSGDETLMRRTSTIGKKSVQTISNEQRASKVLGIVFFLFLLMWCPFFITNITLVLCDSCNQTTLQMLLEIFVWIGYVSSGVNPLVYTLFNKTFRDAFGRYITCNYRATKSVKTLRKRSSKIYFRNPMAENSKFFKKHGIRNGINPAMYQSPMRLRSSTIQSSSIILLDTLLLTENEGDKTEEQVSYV"},
  "source": "patent EP1655027A1",
  "about": "“9-(N-methyl-piperidyliden-4)-thioxanthene for treatment of pulmonary hypertension and migraine” (Biofrontera Pharmaceuticals GmbH, priority 2004, dated 2006)",
  "molecular_target": "human 5-HT2B receptor (Homo sapiens, UniProt P41595)",
  "assay": "Cloned human 5-HT2B receptor binding assay, [3H]-5HT",
  "data": [
    {"molecule": "CC[C@@H](CO)NC(=O)[C@@H]1C=C2c3cccc4c3c(cn4C)C[C@H]2N(C)C1", "note": "[Methysergide]", "values": [
      {"measurement": "Ki", "value": 1.41, "unit": "nM"}
    ]}
  ]
}
